# Measurements reported in PubChem BioAssay AID1259308 (NCATS, 2017)
# Aim: 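Candidate targets for better recombinant protein yield in mammalian cells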 (primary screen)
# System: human HEK293 embryonic kidney cells stably expressing firefly luciferase (HEK-CMV-Luc2-Hygro)
# Reagent: single siRNA against human genes, 0.8 pmol siRNA per well
# Duration: 72 h
# Read-out: 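Reporter luminescence and viable-cell signal on separate replicate plates, given as percent of non-targeting control and median/MAD z-scores, plus per-cell luciferase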
# Reading the numbers: total luciferase, z-score: higher = more reporter protein produced
# Call rule: 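An siRNA counts as active if its total luciferase robust z-score exceeds 3; genes with two or more such siRNAs out of three were retested with fresh siRNAs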
# Meaning of the calls: active = raised luciferase; inactive = no rise
# The deposit covers about 59,000 reagents; below is a random part of them. Of all reagents, about 1,510 (2.6%) are marked active. 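Calls use total luciferase alone and ignore viability, so some active siRNAs may act by altering cell number.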 A number with no mark means an inactive call. Reagents against one gene are numbered here. Not all columns of the deposit are shown. Reagent sequences are not shown.
target gene,reagent,"total luciferase, z-score"
CAND2,1,-1.27
CAND2,2,-0.117
CAND2,3,-0.199
RAI1,1,0.582
RAI1,2,-0.398
RAI1,3,1.17
VCY,1,-0.68
VCY,2,-0.106
VCY,3,2.04
VAMP1,1,0.849
VAMP1,2,-0.327
VAMP1,3,-0.0482
FBXO42,1,-0.769
FBXO42,2,0.789
FBXO42,3,-0.386
RTCA,1,0.989
RTCA,2,1.5
RTCA,3,0.28
JMJD8,1,0.355
JMJD8,2,4.77 (active)
JMJD8,3,0.0915
LINC02389,1,-0.0593
LINC02389,2,0.262
LINC02389,3,-1.37
MCM4,1,0.664
MCM4,2,-0.312
MCM4,3,-1.14
LMX1B,1,1.18
LMX1B,2,0.855
LMX1B,3,0.264
DUSP18,1,0.609
DUSP18,2,2.54
DUSP18,3,-1.32
COQ8B,1,-0.202
COQ8B,2,0.405
COQ8B,3,0.441
ISL1-DT,1,0.79
ISL1-DT,2,-0.265
ISL1-DT,3,0.0566

2 entries from above, arranged by “total luciferase, z-score”, low to high.
target gene,reagent,"total luciferase, z-score"
RTCA,1,0.989
RTCA,2,1.5
